# The supplement of paper PMC8728848
# The other results are listed elsewhere or left out.
# Key:
# Test in all cases: glycan array binding signal (z-score within array); higher = stronger binding
# Conditions in all cases: glycan notation: IUPAC condensed, linker removed
# [1] = target: Gal(b1-3)GlcNAc6S
# Method in brief: (§1)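 The Consortium for Functional Glycomics database supplied 3228 glycan arrays, of which those lacking an available protein sequence were dropped. The binding signal, a within-array Z-score, was averaged across arrays of the same protein sequence and across linkers. Negative scores can be read as non-binding.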
# [2] = target: Gal(b1-3)[Fuc(a1-4)]GlcNAc
# Method in brief: as §1
# [3] = target: Gal(b1-3)[Fuc(a1-4)]GlcNAc(b1-2)Man(a1-3)[Gal(b1-3)[Fuc(a1-4)]GlcNAc(b1-2)Man(a1-6)]Man(b1-4)GlcNAc(b1-4)[Fuc(a1-6)]GlcNAc
# Method in brief: as §1
# [4] = target: Gal(b1-3)[Fuc(a1-4)]GlcNAc(b1-3)Gal(b1-3)[Fuc(a1-4)]GlcNAc
# Method in brief: as §1
# [5] = target: Gal(b1-3)[Fuc(a1-4)]GlcNAc(b1-3)Gal(b1-4)GlcNAc
# Method in brief: as §1
# [6] = target: Gal(b1-3)[Fuc(a1-4)]GlcNAc(b1-3)Gal(b1-4)[Fuc(a1-3)]GlcNAc
# Method in brief: as §1
# [7] = target: Gal(b1-3)[Fuc(a1-4)]GlcNAc(b1-6)GalNAc
# Method in brief: as §1
# [8] = target: Gal(b1-3)[GlcNAc(b1-6)]GalNAc
# Method in brief: as §1
# [9] = target: Gal(b1-3)[Neu5Ac(a2-6)]GalNAc
# Method in brief: as §1
# [10] = target: Gal(b1-3)[Neu5Ac(a2-6)]GlcNAc(b1-6)Gal(b1-4)Glc
# Method in brief: as §1
# [11] = target: Gal(b1-3)[Neu5Ac(b2-6)]GalNAc
# Method in brief: as §1
# [12] = target: Gal(b1-4)Gal
# Method in brief: as §1
# [13] = target: Gal(b1-4)GalNAc(a1-3)[Fuc(a1-2)]Gal(b1-4)GlcNAc
# Method in brief: as §1
# [14] = target: Gal(b1-4)GalNAc(b1-3)[Fuc(a1-2)]Gal(b1-4)GlcNAc
# Method in brief: as §1
# [15] = target: Gal(b1-4)Glc
# Method in brief: as §1
# [16] = target: Gal(b1-4)Glc6S
# Method in brief: as §1
# [17] = target: Gal(b1-4)GlcNAc
# Method in brief: as §1
# [18] = target: Gal(b1-4)GlcNAc(a1-6)Gal(b1-4)GlcNAc
# Method in brief: as §1
# [19] = target: Gal(b1-4)GlcNAc(b1-2)Man
# Method in brief: as §1
# [20] = target: Gal(b1-4)GlcNAc(b1-2)Man(a1-3)Man(b1-4)GlcNAc(b1-4)GlcNAc
# Method in brief: as §1
# [21] = target: Gal(b1-4)GlcNAc(b1-2)Man(a1-3)[Gal(b1-4)GlcNAc(b1-2)Man(a1-6)]Man(b1-4)GlcNAc(b1-4)GlcNAc
# Method in brief: as §1
# [22] = target: Gal(b1-4)GlcNAc(b1-2)Man(a1-3)[Gal(b1-4)GlcNAc(b1-2)Man(a1-6)]Man(b1-4)GlcNAc(b1-4)[Fuc(a1-6)]GlcNAc
# Method in brief: as §1
# [23] = target: Gal(b1-4)GlcNAc(b1-2)Man(a1-3)[Gal(b1-4)GlcNAc(b1-2)][GlcNAc(b1-4)]Man(b1-4)GlcNAc(b1-4)GlcNAc
# Method in brief: as §1
# [24] = target: Gal(b1-4)GlcNAc(b1-2)Man(a1-3)[GlcNAc(b1-2)Man(a1-6)]Man(b1-4)GlcNAc(b1-4)GlcNAc
# Method in brief: as §1
# [25] = target: Gal(b1-4)GlcNAc(b1-2)Man(a1-3)[Man(a1-6)]Man(b1-4)GlcNAc(b1-4)GlcNAc
# Method in brief: as §1
# [26] = target: Gal(b1-4)GlcNAc(b1-2)Man(a1-6)Man(b1-4)GlcNAc(b1-4)GlcNAc
# Method in brief: as §1
# [27] = target: Gal(b1-4)GlcNAc(b1-2)Man(a1-6)[GlcNAc(b1-2)Man(a1-3)]Man(b1-4)GlcNAc(b1-4)GlcNAc
# Method in brief: as §1
# [28] = target: Gal(b1-4)GlcNAc(b1-2)Man(a1-6)[Man(a1-3)]Man(b1-4)GlcNAc(b1-4)GlcNAc
# Method in brief: as §1
# [29] = target: Gal(b1-4)GlcNAc(b1-2)[Gal(b1-4)GlcNAc(b1-4)]Man(a1-3)[Gal(b1-4)GlcNAc(b1-2)Man(a1-6)]Man(b1-4)GlcNAc(b1-4)GlcNAc
# Method in brief: as §1
# [30] = target: Gal(b1-4)GlcNAc(b1-2)[Gal(b1-4)GlcNAc(b1-4)]Man(a1-3)[Gal(b1-4)GlcNAc(b1-2)[Gal(b1-4)GlcNAc(b1-6)]Man(a1-6)]Man(b1-4)GlcNAc(b1-4)GlcNAc
# Method in brief: as §1
# [31] = target: Gal(b1-4)GlcNAc(b1-2)[Gal(b1-4)GlcNAc(b1-4)]Man(a1-3)[GlcNAc(b1-4)][Gal(b1-4)GlcNAc(b1-2)Man(a1-6)]Man(b1-4)GlcNAc(b1-4)GlcNAc
# Method in brief: as §1
# [32] = target: Gal(b1-4)GlcNAc(b1-2)[Gal(b1-4)GlcNAc(b1-4)]Man(a1-3)[GlcNAc(b1-4)][Gal(b1-4)GlcNAc(b1-2)[Gal(b1-4)GlcNAc(b1-6)]Man(a1-6)]Man(b1-4)GlcNAc(b1-4)GlcNAc
# Method in brief: as §1
# [33] = target: Gal(b1-4)GlcNAc(b1-2)[Gal(b1-4)GlcNAc(b1-4)]Man(a1-3)[GlcNAc(b1-4)][Gal(b1-4)GlcNAc(b1-2)[Gal(b1-4)GlcNAc(b1-6)]Man(a1-6)]Man(b1-4)GlcNAc(b1-4)[Fuc(a1-6)]GlcNAc
# Method in brief: as §1
# [34] = target: Gal(b1-4)GlcNAc(b1-2)[Gal(b1-4)GlcNAc(b1-6)]Man(a1-6)[Gal(b1-4)GlcNAc(b1-2)Man(a1-3)]Man(b1-4)GlcNAc(b1-4)GlcNAc
# Method in brief: as §1
# [35] = target: Gal(b1-4)GlcNAc(b1-2)[Gal(b1-4)GlcNAc(b1-6)]Man(a1-6)[Gal(b1-4)GlcNAc(b1-2)Man(a1-3)]Man(b1-4)GlcNAc(b1-4)[Fuc(a1-6)]GlcNAc
# Method in brief: as §1
# [36] = target: Gal(b1-4)GlcNAc(b1-2)[Gal(b1-4)GlcNAc(b1-6)]Man(a1-6)[GlcNAc(b1-4)][Gal(b1-4)GlcNAc(b1-2)Man(a1-3)]Man(b1-4)GlcNAc(b1-4)GlcNAc
# Method in brief: as §1
# [37] = target: Gal(b1-4)GlcNAc(b1-3)Gal(b1-3)GlcNAc
# Method in brief: as §1
binder,measurement,setting,value
Intelectin-1a (Mus musculus) (protein) AEWSHPQFEKAEENLDTNRWGNSFFSSLPRSCKEIKQEHTKAQDGLYFLRTKNGVIYQTFCDMTTAGGGWTLVASVHENNMRGKCTVGDRWSSQQGNRADYPEGDGNWANYNTFGSAEAATSDDYKNPGYFDIQAENLGIWHVPNKSPLHNWRKSSLLRYRTFTGFLQHLGHNLFGLYKKYPVKYGEGKCWTDNGPALPVVYDFGDARKTASYYSPSGQREFTAGYVQFRVFNNERAASALCAGVRVTGCNTEHHCIGGGGFFPEGNPVQCGDFASFDWDGYGTHNGYSSSRKITEAAVLLFYR,glycan array binding signal (z-score),[1],-0.197
same,glycan array binding signal (z-score),[2],-0.153
same,glycan array binding signal (z-score),[3],0.779
same,glycan array binding signal (z-score),[4],-1.27
same,glycan array binding signal (z-score),[5],0.614
same,glycan array binding signal (z-score),[6],-1.16
same,glycan array binding signal (z-score),[7],2.02
same,glycan array binding signal (z-score),[8],0.85
same,glycan array binding signal (z-score),[9],0.131
same,glycan array binding signal (z-score),[10],0.312
same,glycan array binding signal (z-score),[11],-0.949
same,glycan array binding signal (z-score),[12],0.379
same,glycan array binding signal (z-score),[13],0.11
same,glycan array binding signal (z-score),[14],0.969
same,glycan array binding signal (z-score),[15],0.206
same,glycan array binding signal (z-score),[16],-0.292
same,glycan array binding signal (z-score),[17],-0.531
same,glycan array binding signal (z-score),[18],-0.364
same,glycan array binding signal (z-score),[19],-1.09
same,glycan array binding signal (z-score),[20],-0.473
same,glycan array binding signal (z-score),[21],-0.839
same,glycan array binding signal (z-score),[22],0.34
same,glycan array binding signal (z-score),[23],-0.539
same,glycan array binding signal (z-score),[24],-0.25
same,glycan array binding signal (z-score),[25],-0.594
same,glycan array binding signal (z-score),[26],0.843
same,glycan array binding signal (z-score),[27],-0.048
same,glycan array binding signal (z-score),[28],-0.71
same,glycan array binding signal (z-score),[29],0.052
same,glycan array binding signal (z-score),[30],0.316
same,glycan array binding signal (z-score),[31],-0.714
same,glycan array binding signal (z-score),[32],0.325
same,glycan array binding signal (z-score),[33],0.893
same,glycan array binding signal (z-score),[34],-0.153
same,glycan array binding signal (z-score),[35],0.195
same,glycan array binding signal (z-score),[36],0.058
same,glycan array binding signal (z-score),[37],-0.43
